These results are taken from publication PMC12376700.

The chains behind the UniProt entries cited, without tags or fusion partners.
UniProt O35864: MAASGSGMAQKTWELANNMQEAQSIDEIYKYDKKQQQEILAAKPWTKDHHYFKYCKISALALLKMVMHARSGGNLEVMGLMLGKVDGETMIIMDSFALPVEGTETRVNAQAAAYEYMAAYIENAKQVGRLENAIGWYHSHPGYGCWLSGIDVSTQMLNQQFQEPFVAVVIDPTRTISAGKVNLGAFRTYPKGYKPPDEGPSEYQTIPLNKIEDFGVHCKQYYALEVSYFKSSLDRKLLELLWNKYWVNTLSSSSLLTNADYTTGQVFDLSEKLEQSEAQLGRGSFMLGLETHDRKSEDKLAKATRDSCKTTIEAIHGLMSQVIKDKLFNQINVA
UniProt P56399: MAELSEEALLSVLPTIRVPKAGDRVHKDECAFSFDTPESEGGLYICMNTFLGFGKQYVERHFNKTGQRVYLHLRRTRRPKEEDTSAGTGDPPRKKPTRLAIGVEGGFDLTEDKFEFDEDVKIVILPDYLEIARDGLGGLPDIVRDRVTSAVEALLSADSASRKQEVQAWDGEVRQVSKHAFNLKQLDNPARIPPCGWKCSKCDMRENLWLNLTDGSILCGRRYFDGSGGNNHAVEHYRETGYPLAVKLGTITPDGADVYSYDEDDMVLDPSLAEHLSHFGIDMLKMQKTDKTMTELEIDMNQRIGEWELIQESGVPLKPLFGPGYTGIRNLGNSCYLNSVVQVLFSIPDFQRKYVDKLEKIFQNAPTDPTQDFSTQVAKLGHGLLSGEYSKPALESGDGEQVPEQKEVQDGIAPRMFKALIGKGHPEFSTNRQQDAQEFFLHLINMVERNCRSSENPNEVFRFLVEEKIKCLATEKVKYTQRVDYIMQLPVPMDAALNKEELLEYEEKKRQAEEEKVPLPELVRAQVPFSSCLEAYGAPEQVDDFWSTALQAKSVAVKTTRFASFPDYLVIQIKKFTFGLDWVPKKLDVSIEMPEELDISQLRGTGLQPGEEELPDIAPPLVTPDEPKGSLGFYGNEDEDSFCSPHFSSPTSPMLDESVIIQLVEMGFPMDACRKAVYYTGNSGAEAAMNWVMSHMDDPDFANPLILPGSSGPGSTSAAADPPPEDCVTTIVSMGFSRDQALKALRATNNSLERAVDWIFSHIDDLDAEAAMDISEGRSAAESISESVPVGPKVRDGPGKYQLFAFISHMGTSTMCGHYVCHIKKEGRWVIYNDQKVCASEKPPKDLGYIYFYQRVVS
UniProt P52479: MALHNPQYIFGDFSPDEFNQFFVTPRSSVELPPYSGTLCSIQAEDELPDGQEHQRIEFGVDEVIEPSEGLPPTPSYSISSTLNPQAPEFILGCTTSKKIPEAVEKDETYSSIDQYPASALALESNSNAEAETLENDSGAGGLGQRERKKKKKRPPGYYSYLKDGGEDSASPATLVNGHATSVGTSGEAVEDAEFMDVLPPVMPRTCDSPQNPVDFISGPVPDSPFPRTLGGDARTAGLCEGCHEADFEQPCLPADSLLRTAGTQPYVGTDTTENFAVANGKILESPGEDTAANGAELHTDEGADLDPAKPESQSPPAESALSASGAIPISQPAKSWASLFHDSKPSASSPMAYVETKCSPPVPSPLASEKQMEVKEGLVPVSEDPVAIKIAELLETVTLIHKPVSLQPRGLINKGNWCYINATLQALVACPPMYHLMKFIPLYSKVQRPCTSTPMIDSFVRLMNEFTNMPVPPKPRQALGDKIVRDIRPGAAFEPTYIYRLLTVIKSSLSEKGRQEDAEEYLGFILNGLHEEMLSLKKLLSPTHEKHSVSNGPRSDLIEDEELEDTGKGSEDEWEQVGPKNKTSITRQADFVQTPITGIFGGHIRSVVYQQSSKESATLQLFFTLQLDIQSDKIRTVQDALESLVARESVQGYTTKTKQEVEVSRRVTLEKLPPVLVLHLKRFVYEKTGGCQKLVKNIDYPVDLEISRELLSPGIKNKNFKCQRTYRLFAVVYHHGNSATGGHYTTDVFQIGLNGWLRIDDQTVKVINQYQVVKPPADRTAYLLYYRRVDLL
UniProt Q9JMA1: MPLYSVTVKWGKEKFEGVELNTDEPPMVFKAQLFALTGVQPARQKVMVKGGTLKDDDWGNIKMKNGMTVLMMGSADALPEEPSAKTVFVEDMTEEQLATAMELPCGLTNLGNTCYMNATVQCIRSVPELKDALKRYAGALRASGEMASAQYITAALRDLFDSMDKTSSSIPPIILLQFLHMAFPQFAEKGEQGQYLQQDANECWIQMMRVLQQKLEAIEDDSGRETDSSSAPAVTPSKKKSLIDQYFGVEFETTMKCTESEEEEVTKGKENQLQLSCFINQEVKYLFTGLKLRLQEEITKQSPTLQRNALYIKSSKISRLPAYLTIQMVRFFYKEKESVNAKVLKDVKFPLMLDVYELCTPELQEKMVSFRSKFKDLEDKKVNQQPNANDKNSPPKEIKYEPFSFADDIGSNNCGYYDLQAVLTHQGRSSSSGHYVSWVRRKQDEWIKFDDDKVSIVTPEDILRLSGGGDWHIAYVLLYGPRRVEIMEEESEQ

These are yes or no findings as the source states them, for the method shown. In cells and extracts the contact can be indirect. Here binding means that the protein was enriched with, or labelled near, the bait; the list need not be complete.

For this test, the target named is T1, SLC7A11 (mouse (endogenous in MLO-Y4)) (UniProt Q9WTR6).
T1 sequence: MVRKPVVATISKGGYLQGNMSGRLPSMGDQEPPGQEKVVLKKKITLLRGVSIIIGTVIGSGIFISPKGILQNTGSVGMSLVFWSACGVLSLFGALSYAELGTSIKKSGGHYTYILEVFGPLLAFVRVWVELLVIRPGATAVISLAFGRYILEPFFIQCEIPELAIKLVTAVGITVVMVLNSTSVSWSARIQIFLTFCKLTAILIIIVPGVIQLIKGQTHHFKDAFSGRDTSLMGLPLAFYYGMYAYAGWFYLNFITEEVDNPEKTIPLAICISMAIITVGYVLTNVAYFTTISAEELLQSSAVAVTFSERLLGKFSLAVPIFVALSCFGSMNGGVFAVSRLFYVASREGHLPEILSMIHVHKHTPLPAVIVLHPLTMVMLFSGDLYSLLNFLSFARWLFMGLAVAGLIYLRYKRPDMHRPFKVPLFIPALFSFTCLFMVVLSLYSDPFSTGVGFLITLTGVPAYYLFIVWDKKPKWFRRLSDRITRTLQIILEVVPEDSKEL
In words: affinity purification with mass spectrometry; anti-SLC7A11 antibody and protein A/G magnetic beads on MLO-Y4 lysate; SDS-PAGE, gel bands excised, LC-MS/MS; search against the Mus musculus database; hits cross-referenced with UbiBrowser.
With “COPS5 (from UniProt O35864 1-334) (enzyme)”, the binding result is on record as “binds”.

“USP5 (from UniProt P56399 1-858) (enzyme)”: the binding entry is “binds”.

With “USP10 (from UniProt P52479 1-792) (enzyme)”, the binding result was “binds”.

With “USP14 (from UniProt Q9JMA1 1-493) (enzyme)”, the binding result is given as “binds”.
